Source: patent US20150359816A1, “STABLE COMPOSITIONS COMPRISING HEPARINOID, ACUTE-ACTING ANESTHETIC, AND BUFFER” (URIGEN PHARMACEUTICALS, INC., priority 2014, published 2015)
Structures can show the parent of a compound that is named as a salt.

Settings: 25 mL solution with 333 mg lidocaine hydrochloride

In the case of CCN(CC)CC(=O)Nc1c(C)cccc1C [Lidocaine, lidocaine hydrochloride], the “precipitation of lidocaine / stability of solution” value is reported as “unstable with precipitation of lidocaine”.
